Source: PubChem BioAssay AID743454 (Peter MacCallum Cancer Centre, 2014)
Test: 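Genes whose loss kills vorinostat-resistant colon cancer cells under vorinostat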 (primary screen). System: human HCT116-VR colon cancer cells, selected for vorinostat resistance. Reagent: siRNA pool against human genes, 40 nM siRNA pool. Duration: vorinostat for 24 h, read-out about 72 h after transfection. Treatment: vorinostat at 2.5 µM final. Detection: 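Cell viability by CellTiter-Fluor and caspase 3/7 activity by luminescence, each scaled to mock wells per plate, duplicates averaged, then robust z-scored over all plates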. Scale: viability robust z-score: higher = more viable cells than screen typical; caspase robust z-score: higher = more caspase 3/7 activity than screen typical. Rule for the call: 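Hits are knock-downs in viability class RV1/RV2 or caspase class CA1/CA2, excluding ones that killed cells in the no-drug cell-count arm; hits then retested with single siRNAs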.
The deposit covers about 18,000 reagents; below is an unselected part. Of all reagents, 450 (2.5%) got an active call. 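Single biological run; no consistent viability z cut-off exists, so the class columns, not z-scores, define the calls.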 Reagent sequences are not shown.

The opening 3 records, to show the layout:
gene	PubChem SID	viability hit class	caspase hit class	viability robust z-score	caspase robust z-score	activity call
AKAP13 (A-kinase anchoring protein 13)	SID56479218	no change	no change	1.25	1.06	inactive
PFAS (phosphoribosylformylglycinamidine synthase)	SID134313852	no change	no change	-0.87	-0.43	inactive
RBP7 (retinol binding protein 7)	SID134313513	no change	no change	0.1	-0.72	inactive

The list itself, from the start:
gene	PubChem SID	viability hit class	caspase hit class	viability robust z-score	caspase robust z-score	activity call
AKAP13 (A-kinase anchoring protein 13)	SID56479218	no change	no change	1.25	1.06	inactive
PFAS (phosphoribosylformylglycinamidine synthase)	SID134313852	no change	no change	-0.87	-0.43	inactive
RBP7 (retinol binding protein 7)	SID134313513	no change	no change	0.1	-0.72	inactive
HCLS1 (hematopoietic cell-specific Lyn substrate 1)	SID134321652	no change	no change	-0.73	-0.22	inactive
STT3B (STT3 oligosaccharyltransferase complex catalytic subunit B)	SID134321767	no change	no change	-0.14	0.9	inactive
TIMM10B (translocase of inner mitochondrial membrane 10B)	SID152150581	no change	no change	-0.57	3.16	inactive
SAA2 (serum amyloid A2)	SID134320279	no change	no change	-1.6	0.22	inactive
EEF2 (eukaryotic translation elongation factor 2)	SID152155481	no change	no change	-1.02	-0.84	inactive
CHP2 (calcineurin like EF-hand protein 2)	SID152151350	no change	no change	0.94	1.23	inactive
NEK8 (NIMA related kinase 8)	SID56478901	no change	no change	-0.86	-0.57	inactive
ZNF106 (zinc finger protein 106)	SID134318273	no change	no change	1.33	-0.22	inactive
LOC155060 (AI894139 pseudogene)	SID135624797	no change	no change	1.38	0.68	inactive
SOX30 (SRY-box transcription factor 30)	SID134316631	no change	no change	1.31	0.28	inactive
KIF21B (kinesin family member 21B)	SID152147132	no change	no change	1	-0.81	inactive
THEMIS (thymocyte selection associated)	SID152156312	no change	no change	1.67	0.88	inactive
CCL7 (C-C motif chemokine ligand 7)	SID134312783	no change	no change	-1.6	1.37	inactive
NEK2 (NIMA related kinase 2)	SID56478772	no change	no change	1.48	0.05	inactive
HIP1R (huntingtin interacting protein 1 related)	SID134326729	no change	no change	-1.62	1.15	inactive
ZNF222 (zinc finger protein 222)	SID134324047	no change	no change	0.13	-0.56	inactive
CMKLR2 (chemerin chemokine-like receptor 2)	SID152152354	no change	no change	-1.61	0.61	inactive
PMM1 (phosphomannomutase 1)	SID134316073	no change	no change	0.42	3.28	inactive
SPSB1 (splA/ryanodine receptor domain and SOCS box containing 1)	SID152153251	no change	no change	0.21	0.39	inactive
CEMIP2 (cell migration inducing hyaluronidase 2)	SID134324064	no change	no change	0.69	-0.35	inactive
SULT2B1 (sulfotransferase family 2B member 1)	SID135621786	no change	no change	-0.26	0.04	inactive
C1orf162 (chromosome 1 open reading frame 162)	SID152149452	no change	no change	-1.25	-1.14	inactive
TMPRSS7 (transmembrane serine protease 7)	SID152149958	no change	no change	-0.78	3	inactive
OR2F2 (olfactory receptor family 2 subfamily F member 2)	SID152155929	no change	no change	0.33	-0.84	inactive
SLC38A12	SID135621352	no change	no change	-0.84	0.02	inactive
CEACAM1 (CEA cell adhesion molecule 1)	SID152147499	no change	no change	-0.11	0.45	inactive
RIC8B (RIC8 guanine nucleotide exchange factor B)	SID135624116	no change	no change	-0.43	-0.02	inactive
OR4X2 (olfactory receptor family 4 subfamily X member 2)	SID152156381	no change	no change	-0.08	0.5	inactive
GABRR2 (gamma-aminobutyric acid type A receptor subunit rho2)	SID152149603	no change	no change	0.22	-0.96	inactive
BPNT2 (3'(2'), 5'-bisphosphate nucleotidase 2)	SID152151609	no change	no change	-0.11	1.3	inactive
SLAMF7 (SLAM family member 7)	SID134321081	no change	no change	0.49	-0.52	inactive
DHX58 (DExH-box helicase 58)	SID152155047	no change	no change	-2.37	-0.5	inactive
C22orf15 (chromosome 22 open reading frame 15)	SID135623572	no change	CA1 (caspase activation)	-0.02	7.7	active
MYL12B (myosin light chain 12B)	SID134322002	no change	no change	-0.48	0.06	inactive
SELENOP (selenoprotein P)	SID135622250	no change	no change	1.08	-0.76	inactive
FBXO45 (F-box protein 45)	SID135624376	no change	no change	0.26	0.31	inactive
